Test results as given in PubChem BioAssay AID1508600 (Functional Genomics Laboratory (NCATS/FGL), 2020).
Among all 53,000 sequences or so, about 3,700 (7%) were called active.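 How the source made its calls: active means gene knockdowns whose robust z-score for IL-1 alpha signal is at least 2 or at most -2, so actives lie on both sides; inactive means the rest.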 The list shows a part of the results.

test: Components of the Cytosolic LPS Sensing Pathway: Gene Identification via Genome-wide siRNA Screen; conditions: RAW264.7 macrophages, IL-1a HTRF, actives lie on both sides, screened at 100 nM (by protocol), cells primed 5 h with Pam3CSK4 first;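 further: robust z of the log signal after scaling to non-targeting control siRNA wells of the plate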
In short: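 Supernatant IL-1a by HTRF from RAW264.7 cells primed with Pam3CSK4 (5 hours) and transfected with LipidA (24 hour) after 48h siRNA knockdown at 100 nM; cell viability checked with CellTiter-Glo.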

z-score, inactive:
GCCCAUGCCUAUGCUAAUGTT against A530095I07Rik -0.225
GGUCUUUUCGAACUCUUCATT against Senp2 0.488
GGCUGCUGUCAUUAUUUGUTT against Terf2 -0.768
GGCCCUUCAUUUAGUGGAUTT against Trim44 0.292
GGACCAAGGCUUUAUGAACTT against Crygn 0.404
GCGACUAUCUAACACGAGUTT against Sacm1l -1.07
GGGACAGAUACUUCAGAAGTT against Kcnv1 0.0736
GGAAUUCUUCCCAUCUGUATT against Lmf2 0.409
GGUUUUCUACUUCUCAAUUTT against Sec61g 0.144
GGUAAUUUUGAAUGUGGCATT against Lemd2 -1.73
GGUAAAAAACUGUCCUUCATT against Zfp788 0.072
GCUAAUCUAUCCGUGUCCUTT against B3gnt3 -0.522
GGAACACUGGAAGAAAGAUTT against Arhgap35 -1.21
CCAGAUGCAUCAAAAUUUUTT against Tbc1d15 -0.415
GGAGAAAAGGAUGUUGUUATT against Eepd1 1.71
GGCCAGCAAAUUCAAAUCATT against Sp4 0.234
GGUUAAUUGUCGACUAGACTT against Pcdhgb5 0.803
GCUCGCCAAUAUGUAUAUGTT against Fam120c -0.37
GGUAUUGGAUAACAGAAUUTT against Rasgrp1 -0.575
GCGGAUGUUGAAAUGUUUATT against Shprh 0.254
GCGCACACCAUGGAUAGAATT against Sult2a8 -0.836
UGCAACUGUUCAGAUUCUGTT against Olfr149 -1.21
GGAAGAAAUGUUUUUUGGUTT against Hivep2 -0.188
CGUAUCAGAUAUAUCACAUTT against Isoc1 0.204
CGGGUGAGUGGAAAAACCATT against Atg9b -0.282
GCAUAUGGUCCACUAAAAATT against Kcnj4 0.294
GCUUAAAUUGACCUCAGUGTT against Nmi -1.78
GGGAGUUAUGUUGGUAUCATT against 1700029F12Rik -1.38
GCUUCUGAAUUACAAAGCUTT against Cmah -0.205
CCACGAGAAUGUUGAUAACTT against A830031A19Rik 0.274
GCGGUCCAUCAUCAAACUCTT against Rpap2 -1.3
GGGAAUGUGUGCCUUGUUGTT against Olfr16 -0.899
CCGCACAUGCUCUCAAAUATT against Polr3d -1.25
GGCCAAGACACCCUUGUUUTT against Zfp524 -0.376
CCAAACCACCUACCGUAAATT against Rnase9 -0.681
CGAGAUUGACUCUAUUGGCTT against Psmc5 -1.53
GGGAGAGUUCCAUAAAUUGTT against Narf -0.728
GGAGCUAAUGGAAAACGGCTT against Tinagl1 0.182
GGUAGGAAACCUCUCAGAGTT against Kcnc1 0.85
GGUCAACAUUUGCUGUAAGTT against Inhba -0.599
GGACAUUGACACUACUCCATT against Cyp2c55 -0.519
GGUCUUCGUGUCGACAUUCTT against Gpr153 -1.02
GGCUCUUCAUGAUCCUUUGTT against Clic4 -1.21
GCUAAUGGACGAUUUGAAGTT against Ube2j1 -0.378
GCCGGAUCCGAACAAGGAUTT against Pus7l 0.656
GGUGCUACAAGAAAUGUCUTT against F13b -0.435
UCUUUGGCAACACUACCAUTT against Olfr1386 0.366
GGCAAGGUAGAGAUCAUCATT against Ggt5 -1.1
GGAUUGUGGCCUUCUUUGATT against Bcl2 0.217
GCCAUGACUAUUCCAGCUUTT against Lgals4 -0.456
GGAUAAGAGGGUGAAGUCATT against Cdyl2 -1.06
GGUGCUGAUCCUUCAAAGGTT against Lrrc66 -0.205
CCUCUCAACCACUGACUGATT against Gpatch4 0.836
GGGCUUCUCCUAAUUCAGATT against Armcx3 1.09
GGAAGUGAGGAAGUGACAUTT against 1810009N02Rik -1.34
GGAGUUUUCUCGAAACUUCTT against Fate1 0.993
GGAGUUCCUAUUUAAUCCCTT against Hoxb8 -0.419
GCAAUGCACCAUUAGCAGCTT against Stard8 -1.72
GUACAAGUGUGGACCCUUATT against Chchd2 0.409
GGAACAUCGUGACUUUAUATT against Uhmk1 1.06
GGGUGAUACUGACAAUCAUTT against Fhod1 0.624
GGCACAGCUUGCUGAAGCUTT against Atp11b -1.76
GGCCAAGAUCCAGAAGAAGTT against Ush1g -1.45
UUUCCCGACCUCUCCACUATT against Olfr463 0.216
GCUGGCUUCAUUUUACUUATT against Degs1 0.126
GCCAAGAUCCCACCAGUUATT against Neurl1b 0.639
CUUUUCAAGCAGGAGAGUUTT against Mterf1a -0.0711
GGUGGAGAAGAGUUUCUGCTT against Gpr132 0.375
GCUCUGGAGGAAAAAAAUATT against Olfr1255 0.26
CCCACCAGCGGAAUUUGAUTT against Acp7 0.826
GGCAGAUAUUUAGAUGAUGTT against Pdyn -0.932
GCAUGAAGGCAAUAUUUCATT against Zfp758 0.574
GGAAUUUAGGAAGCAAAAGTT against Rcc2 -0.533
GGCUAGGACCCAAGUUCUATT against Thra 1.69
CCCUAUUGCUAAAUCCUAATT against Gprin3 -1.19
GGCUCUUUAUGGACAUGGCTT against Tac1 0.447
CCAGGAACAGCUAUCGGAUTT against Homer2 -0.271
CUACCUGUUUCCUAGCUUGTT against Drosha -0.854
GGACUUUUGUGCUGUAUUUTT against Tfcp2l1 -1.52
GGAAGAGGACCAAAGUGCUTT against Pnpla7 1.75
GCUGCUUUAUCGAGUGGUUTT against Capn8 0.841
GGAAAGCAGACAUCGACCUTT against Rps18 -0.848
CCCUCCGAAAAUUUUUCUGTT against Defb14 -0.363
UCAUUCUACCUGGAACCGGTT against Vstm2l 0.71
GCCAGUUGUGACAAAACUATT against Abca1 -1.22
GCAGUGAACAGCUAUUAACTT against Styx 0.695
GGUGCUGAAGAAGCACCAUTT against Stat5a 0.271
GCCCAAAUGAGACUACUUUTT against Ces1e -1.24
GCUGCCGUUUAAAUAUAUGTT against D10Wsu102e 0.31
GGAUAACUACAGGAAUAAGTT against Spam1 -0.701
CCUAAAGAAAGGUUAAAGATT against Sfr1 -0.763
CCCAUUGCCAGUACAACUUTT against Cxcr3 -0.897
CCUUGUUUUUCACAAAUCATT against Usp7 -0.182
UGCUGUUAUCUGCUUACAGTT against Tomm6 -0.863
GGACAGAAAGUUGUCUUUATT against Fam20b 1.44
GGAAUGAGAUUAUUUCUUGTT against Astn1 -0.114
AAUAACACGUCAGUUUAUCTT against A530064D06Rik 0.263

For convenience, some entries already given:
z-score, inactive:
GGUUUUCUACUUCUCAAUUTT against Sec61g 0.144
GGUAAUUUUGAAUGUGGCATT against Lemd2 -1.73
GGUAAAAAACUGUCCUUCATT against Zfp788 0.072
GCUAAUCUAUCCGUGUCCUTT against B3gnt3 -0.522
GGAACACUGGAAGAAAGAUTT against Arhgap35 -1.21
CCAGAUGCAUCAAAAUUUUTT against Tbc1d15 -0.415

Following part:

z-score, active:
GCUAUUCAAUGGACCAGAATT against Olfr490 -2.26
GGCUAUUGUACAACUUAUATT against Pafah1b2 2.1
CGGGAAACUUAGGUAUGAUTT against Olfr1009 -3.05
GGCAUUUUUCUUAGUGAUCTT against Olfr1277 -2.04
GCAGAUGACUAUCGGAAGUTT against Usp53 2.19
CCCUCAGGACACGUUUUAGTT against Wdsub1 -2.14
GGAACUGCUUACGAAAUACTT against Lama4 -2.33
CGGAUUCAGUAUUAGCAAUTT against Ogt -2.4
GGUACCAUGAAGGAUUUAUTT against Tspan2 3.24
